PubChem BioAssay AID1259308 – NCATS | 2017

Assay: 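Knock-downs that increase output of a recombinant reporter protein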 (primary screen)
System: human HEK293 embryonic kidney cells stably expressing firefly luciferase (HEK-CMV-Luc2-Hygro)
Reagent: single siRNA against human genes, 0.8 pmol siRNA per well
Time to read-out: 72 h
Detection: 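Luciferase light (ONE-Glo) measured on one replicate plate set and viability (CellTiter-Glo) on the other, scaled to a negative control siRNA, with robust z-scores and luciferase per cell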
Direction: total luciferase, z-score and total luciferase, % of control: higher = more reporter protein produced
Call rule: 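An siRNA counts as active if its total luciferase robust z-score exceeds 3; genes with two or more such siRNAs out of three were retested with fresh siRNAs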
Meaning of the calls: active = raised luciferase; inactive = no rise
In all, the deposit lists about 59,000 reagents; this is an unselected part. About 1,510 of all reagents (2.6%) count as active. 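Calls use total luciferase alone and ignore viability, so some active siRNAs may act by altering cell number.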 Reagents against one gene are numbered here. Further read-outs or replicates are left out here.

target gene,reagent,"total luciferase, z-score","total luciferase, % of control",activity call
CHRNB2,1,0.268,87.2,inactive
CHRNB2,2,-0.233,77.2,inactive
CHRNB2,3,-0.242,77.1,inactive
OPRL1,1,1.4,110,inactive
OPRL1,2,1.34,109,inactive
OPRL1,3,-0.0628,80.6,inactive
COMMD10,1,-1.4,54,inactive
COMMD10,2,0.396,89.8,inactive
COMMD10,3,-1.1,59.9,inactive
CASC15,1,0.379,89.4,inactive
CASC15,2,-0.795,66.1,inactive
CASC15,3,-1.53,51.5,inactive
SNAPC2,1,2.26,127,inactive
SNAPC2,2,2.07,123,inactive
SNAPC2,3,0.411,90.1,inactive
FABP12,1,0.563,93.1,inactive
FABP12,2,-0.21,77.7,inactive
FABP12,3,-1.02,61.6,inactive
ZFP2,1,0.697,95.7,inactive
ZFP2,2,-0.921,63.6,inactive
ZFP2,3,-1.21,57.8,inactive
KDM4A,1,-1.43,53.4,inactive
KDM4A,2,1.57,113,inactive
KDM4A,3,0.603,93.9,inactive

Records listed so far whose gene name begins with K or k:
target gene,reagent,"total luciferase, z-score","total luciferase, % of control",activity call
KDM4A,1,-1.43,53.4,inactive
KDM4A,2,1.57,113,inactive
KDM4A,3,0.603,93.9,inactive
